Data as given in patent US7258861B2, “TNF-derived peptides for use in treating oedema” (Innogenetics N.V., priority 2001, dated 2007).

System: isolated rat lungs
Experiment: Isolated blood perfused flooded rat lung (weight, lung mechanics, PV curves, histology)
Details: for lung weight increase: first 15 minutes of reperfusion, before alveolar flooding, TNF 5 μg, peptides 1 mg intratracheal

Row | Substance | lung weight increase | time after which Cdyn change is statistically significant compared to NaCl-treated lungs (1 mg) [min] | time at which peak AWP change is statistically significant compared to NaCl-treated lungs (1 mg) [min] | time after which lung weight is statistically different from saline-treated lungs (reperfusion after flooding, 1 mg) [min]
1 | TNF: E.coli-derived recombinant murine TNF | +0.87±0.60 g | – | – | –
2 | CGPKDTPEGAELKPWYC (cyclic; listed as Mus musculus) [cyclic mu Ltip] | +0.80±0.61 g | 15 | 60 | 45
